Experimental data reported in publication PMC2614472.
These are yes or no findings as the source states them, for the method shown. Binding seen in cells or lysates may run through a third protein. Some entries that bind do so weakly or less than the wild type. For some of these results: Sequences can lack the tags named with a protein.

Sequences of proteins named here, by UniProt entry; tags and fusion partners are left off.
UniProt P12956: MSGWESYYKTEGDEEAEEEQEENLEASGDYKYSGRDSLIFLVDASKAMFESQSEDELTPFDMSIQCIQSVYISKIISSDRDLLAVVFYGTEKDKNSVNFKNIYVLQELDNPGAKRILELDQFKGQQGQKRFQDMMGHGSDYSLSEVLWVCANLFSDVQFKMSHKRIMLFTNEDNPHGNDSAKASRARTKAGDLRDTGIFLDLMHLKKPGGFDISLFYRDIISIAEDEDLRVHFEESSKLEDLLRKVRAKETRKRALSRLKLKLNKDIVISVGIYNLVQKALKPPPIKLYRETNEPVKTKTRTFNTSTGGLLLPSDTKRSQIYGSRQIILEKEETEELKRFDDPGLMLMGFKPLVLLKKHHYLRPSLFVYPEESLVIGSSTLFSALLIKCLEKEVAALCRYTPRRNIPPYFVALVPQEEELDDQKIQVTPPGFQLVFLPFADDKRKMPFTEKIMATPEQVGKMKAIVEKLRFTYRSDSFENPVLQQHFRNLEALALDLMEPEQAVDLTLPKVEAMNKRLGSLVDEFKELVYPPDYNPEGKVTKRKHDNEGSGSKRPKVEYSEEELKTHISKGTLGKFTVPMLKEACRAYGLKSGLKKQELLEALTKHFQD
UniProt P13010: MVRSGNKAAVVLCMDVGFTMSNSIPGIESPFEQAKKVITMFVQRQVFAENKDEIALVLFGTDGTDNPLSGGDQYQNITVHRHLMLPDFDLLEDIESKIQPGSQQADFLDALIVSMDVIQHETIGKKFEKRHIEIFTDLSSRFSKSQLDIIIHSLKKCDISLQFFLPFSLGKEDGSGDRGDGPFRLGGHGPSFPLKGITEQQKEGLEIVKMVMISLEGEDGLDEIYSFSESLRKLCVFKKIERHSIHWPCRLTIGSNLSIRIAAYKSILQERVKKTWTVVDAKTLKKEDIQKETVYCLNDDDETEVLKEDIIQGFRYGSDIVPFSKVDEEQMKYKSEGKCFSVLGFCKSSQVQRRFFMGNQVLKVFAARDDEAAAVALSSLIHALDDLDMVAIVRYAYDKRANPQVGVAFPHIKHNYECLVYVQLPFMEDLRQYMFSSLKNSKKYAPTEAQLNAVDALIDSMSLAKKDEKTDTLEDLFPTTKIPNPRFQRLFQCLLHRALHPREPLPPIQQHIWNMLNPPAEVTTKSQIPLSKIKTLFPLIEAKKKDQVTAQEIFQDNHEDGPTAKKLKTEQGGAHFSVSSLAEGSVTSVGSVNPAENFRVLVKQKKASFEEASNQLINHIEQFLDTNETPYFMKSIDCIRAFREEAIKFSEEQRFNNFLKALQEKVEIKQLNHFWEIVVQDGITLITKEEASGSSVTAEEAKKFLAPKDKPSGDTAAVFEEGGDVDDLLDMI

How the values were obtained:
[1] = biological target: T1, myc-dysbindin-1 isoform A (human) (UniProt Q96EV8); assay: co-IP; COS-7 cells doubly transfected with myc-dysbindin-1 isoform and Ku70-V5 or Ku80-V5; lysate (50 mM Tris-HCl pH 7.5, 150 mM NaCl, 1 mM EDTA, 1% Triton X-100) precipitated with anti-myc antibody and protein G Sepharose; blot with anti-V5
T1 sequence: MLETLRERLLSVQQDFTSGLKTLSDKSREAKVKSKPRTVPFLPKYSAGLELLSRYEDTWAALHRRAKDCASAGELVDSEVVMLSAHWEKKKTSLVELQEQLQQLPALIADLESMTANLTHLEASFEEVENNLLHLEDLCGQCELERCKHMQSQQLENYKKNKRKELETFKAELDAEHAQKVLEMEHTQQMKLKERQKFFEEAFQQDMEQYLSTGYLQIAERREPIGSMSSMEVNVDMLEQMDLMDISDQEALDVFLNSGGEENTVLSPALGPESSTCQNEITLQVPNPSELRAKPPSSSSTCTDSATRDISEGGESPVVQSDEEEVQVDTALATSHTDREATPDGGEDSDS

[2] = biological target: T2, endogenous dysbindin-1 (SH-SY5Y cells) (human (endogenous in SH-SY5Y)) (UniProt Q96EV8); assay: co-IP; endogenous proteins; SH-SY5Y lysate mixed overnight at 4°C with anti-dysbindin-1 antibody (or normal rabbit IgG) coupled to gel; four washes; elution with 100 mM glycine-HCl pH 2.8 in three fractions; blots with anti-Ku70, anti-Ku80, anti-dysbindin-1
T2 sequence: T1 sequence

binding [1]	binding [2]	Substance
binds	–	Ku70-V5 (from UniProt P12956 1-609)
binds	–	Ku80-V5 (from UniProt P13010 1-732)
–	binds	ATP-dependent DNA helicase 2 (Ku80), endogenous (from UniProt P13010 1-732)
–	binds	Ku70, endogenous (from UniProt P12956 1-609)
